Measurements from patent publication US20120012822A1, “AROMATIC COMPOUND AND METHOD FOR PRODUCING SAME” (KEIO UNIVERSITY, priority 2009, published 2012).

Test: Evaluation of field-effect type organic thin-film transistor (carrier mobility)
Settings: Vsd −50 V

| SMILES | carrier mobility (organic semiconductor layer approx. 80 nm, 1:1 (weight) mixture with polymer TFB, spin coated from 0.5 wt % chloroform solution, Vg 0 V to −60 V, channel length 20 μm, width 2 mm) | carrier mobility (compound alone, spin coated from 1 wt % chloroform solution, heated 100° C. 30 minutes in vacuum, Vg 0 V to −80 V, channel length 5 μm, width 38 mm) |
| --- | --- | --- |
| CC[Si](CC)(CC)CCc1c2c(c(CC[Si](CC)(CC)CC)c3ccccc13)C(=O)c1c(c(CC[Si](CC)(CC)CC)c3ccccc3c1CC[Si](CC)(CC)CC)C2=O [5,7,12,14-tetrakis(2-(triethylsilyl)ethyl)pentacene-6,13-dione] | 5.8×10^−4 cm^2/Vs | – |
| CC[Si](CC)(CC)CCc1c2ccccc2c(CC[Si](CC)(CC)CC)c2cc3c(CC[Si](CC)(CC)CC)c4ccccc4c(CC[Si](CC)(CC)CC)c3cc12 [5,7,12,14-tetrakis(2-(triethylsilyl)ethyl)pentacene] | – | 4.8×10^−6 cm^2/Vs |
